The record followed here is PubChem BioAssay AID493014 (National Center for Advancing Translational Sciences (NCATS), 2011).

The nature of the assay: qHTS Assay to Find Inhibitors of Chronic Active B-Cell Receptor Signaling. The settings on record: ABC-DLBCL IkBa-CBG/CBR reporter, luminescence ratio (green luciferase fused to IkBa over red control in TMD8 lymphoma cells), 4 h. Put shortly: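 Concentration-response series (up to 46 uM) were applied to TMD8 dual-reporter cells for 4 h at 37C with doxycycline. Green/red ratio, after filter-overlap correction, defined %Activity; red signal alone was normalised to basal cells and zero luminescence.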
(Quantitative high-throughput screening tests each substance at several concentrations.)

The mark [1] stands for this setting: measured here: CBR red luminescence, cell number.
[2] abbreviates: measured here: IkBa-CBG green luminescence.

The other results are listed elsewhere or left out. These are further read-outs of the screen, such as a control signal, another cell line or another target. No call is given for them. The list favours compounds with an active or inconclusive main result. The note in brackets gives the kind of curve behind each potency; many fits are weak.

For orientation: AC50 means the midpoint of the concentration-response curve, whichever way the signal moves. As to `O=C(O)c1ccccc1Nc1cccc(C(F)(F)F)c1`, under setting [1], the AC50 was 12.6 µM [falling, single point].

Take `Cc1cccc(C)c1NC1=NCCCCS1`: the AC50 under setting [1] was 29.1 µM [falling, single point].

In the case of `COc1ccc2[nH]cc(CCN(C)C)c2c1`, the AC50 under setting [1] was 35.5 µM [falling, single point].

Consider `CCOC(=O)C1(c2ccccc2)CCN(CC(=O)Nc2cccc3ccccc23)CC1`, for which the AC50 under setting [1] was 9.2 µM [falling, partial curve, poor fit].

For the compound `Nc1cc(Cl)c2nonc2c1[N+](=O)[O-]`, the AC50 under setting [1] was 3.26 µM [falling, partial curve, poor fit].

`NP(=O)(OCCCc1ccccc1)Oc1ccccc1Cl` (configuration not stated): the AC50 under setting [1] is 3.55 µM [rising, partial curve, poor fit].

Regarding `Cc1cc(=O)oc2cc(OCC(=O)N3C[C@H]4C[C@@H](C3)c3cccc(=O)n3C4)ccc12`, under setting [1], the half-maximal activity concentration (AC50) is 35.5 µM [rising, single point].

`O=C1NC(=O)N(c2ccccc2)C(=O)/C1=C/c1coc2ccc(O)cc2c1=O`: the AC50 under setting [1] was 0.708 µM [rising, partial curve, poor fit].

In the case of `O=[N+]([O-])c1ccc(-c2ccccc2)c([As](=O)(O)O)c1`, the AC50 under setting [1] is 17.8 µM [falling, partial curve, poor fit].

With `COc1ccc(CNCCc2ccc3c(c2)OCO3)c(OC)c1OC`, the AC50 under setting [1] is 31.6 µM [rising, single point].

With `CCOC(=O)N(CC)c1ccc(C(O)(C(=O)OCC)C(F)(F)F)cc1` (configuration not stated), the AC50 under setting [1] was 0.447 µM [falling, partial curve, poor fit].

As to `C=CCn1c(O)c(/C=N/NC(=O)c2ccncc2)c(=O)[nH]c1=O`, the AC50 under setting [1] is 12.6 µM [falling, single point].

As to `COc1cccc(OP(=O)(Nc2ccccc2)Oc2cccc(OC)c2)c1`, under setting [1], the AC50 was 35.5 µM [falling, single point].

On to `COc1cccc(C2CCN(CC(=O)Nc3cc(Cl)ccc3OC)CC2O)c1` (configuration not stated), for which the AC50 under setting [1] was 22.4 µM [falling, single point].

On to `CCCCn1c(O)c(C(C)=NCc2cc(OC)cc(OC)c2)c(=O)[nH]c1=O`, for which, under setting [1], the AC50 was 0.00461 µM [rising, full curve, poor fit].

In the case of `CCN1CCN(C(=O)COc2ccc3c(c2)C(=O)CC2(CCN(C(C)=O)CC2)O3)CC1`, the AC50 under setting [1] is 6.51 µM [falling, single point].

`O=C(N/N=C/c1c(O)n(C2CC2)c(=S)[nH]c1=O)c1ccccc1Cl`: the AC50 under setting [1] was 4.47 µM [falling, partial curve].

`COc1cccc(C(=O)C2CCCN(Cc3ccc4nonc4c3)C2)c1` (configuration not stated): under setting [1], the AC50 is 1.12 µM [rising, full curve, poor fit].

As for `C/C(=N\NC(=O)c1ccc(CN2CCc3ccccc3C2)cc1)c1ccccc1O`, the AC50 under setting [1] is 15.8 µM [falling, single point].

`S=C=Nc1cccc(C2(N3CCCCC3)CCCCC2)c1`: under setting [1], the AC50 was 29.1 µM [falling, single point].

With `Oc1c(Br)c(Br)c(Br)c(Br)c1Br`, the AC50 is, setting by setting: under setting [1], 29.1 µM [falling, single point]; under setting [2], 16.4 µM [rising, partial curve, poor fit].

As to `BrCC(Br)(Br)Br`, the AC50 under setting [1] was 20.6 µM [falling, partial curve, poor fit].

On to `Cc1ccc(N2C(=O)NC(=O)/C(=C\C=C\c3ccco3)C2=O)cc1`, for which the AC50 is 35.5 µM [rising, single point] under setting [1] and 35.5 µM [falling, single point] under setting [2].

Turning to `FC(F)(F)Oc1ccc(C2NCc3ccccc3-n3cccc32)cc1` (configuration not stated), the AC50 under setting [1] was 8.91 µM [rising, partial curve, poor fit].

For `CCCCn1c(=O)c(C(=O)Nc2ccccc2N)c(O)c2ccccc21`, the AC50 runs as follows: under setting [1], 2.24 µM [falling, partial curve]; under setting [2], 25.1 µM [rising, partial curve, poor fit].

For `Cc1nccc2c1[nH]c1ccc(Br)cc12`, the AC50 under setting [1] is 23.1 µM [rising, single point].

As to `CCCCC(=O)N/N=C/c1c(O)n(-c2cccc3ccccc23)c(=O)[nH]c1=O`, the AC50 under setting [1] was 0.891 µM [rising, full curve, poor fit].

In the case of `Cc1cccc(-n2c(-c3cccs3)nc3ccccc3c2=O)c1`, the AC50 under setting [1] was 5.8 µM [rising, single point].

Consider `CCN(CC)CCCNC1=C(Cl)C(=O)c2ccccc2C1=O`, for which the AC50 under setting [1] was 22.4 µM [falling, single point].

For the compound `CC(=O)O[C@H]1[C@H]2O[C@]23[C@@H]2CC[C@]4(O)C[C@@H](O)CC[C@]4(C)C2CC[C@]3(C)[C@H]1c1ccc(=O)oc1` (some centres not stated), the AC50 under setting [1] is 5.8 µM [falling, full curve, poor fit].

Regarding `CCCCC/C(=N/O)c1c(C)[nH]c2ccccc12`, the AC50 under setting [1] was 35.5 µM [rising, single point].

As to `O=C(NC1CCCCCC1)c1ccc[nH]c1=S`, the AC50 under setting [1] was 10 µM [falling, partial curve, poor fit].

For `CC(=Nc1ccccc1N)c1c(O)n(C)c(=O)[nH]c1=O`, the AC50 under setting [2] was 14.1 µM [rising, partial curve, poor fit].

For `CCN1CCN(S(=O)(=O)c2cnc(Cl)c(Br)c2)CC1`, the AC50 under setting [1] was 7.31 µM [falling, partial curve].

On to `CCC(=O)c1ccc(OC(=O)N(C)c2ccccc2)cc1`, for which, under setting [1], the AC50 was 14.1 µM [rising, single point].

For the compound `CC(=O)c1cn(Cc2ccccc2C#N)c2ccccc12`, the AC50 under setting [1] is 1.78 µM [rising, partial curve, poor fit].

As for `CN1CCN(c2ccc([N+](=O)[O-])c(Sc3ccccn3)c2)CC1`, under setting [1], the half-maximal activity concentration (AC50) was 35.5 µM [falling, single point].

Turning to `O=c1[nH]c(=O)n(Cc2ccccc2)c(O)c1C=NCCN1CCNCC1`, under setting [1], the AC50 was 25.9 µM [falling, single point].

Take `CC(=O)OC1C=CC2[C@H]3Cc4ccc(O)c5c4[C@@]2(CCN3C)C1O5` (some centres not stated): the AC50 under setting [1] is 1.64 µM [rising, full curve, poor fit].

Consider `COc1ccc(-n2c(/C=C/c3ccc(O)c(O)c3)nc3ccccc3c2=O)cc1`, for which the AC50 under setting [1] is 7.94 µM [falling, partial curve, poor fit].

On to `O=C(O)c1cccc(N=Nc2c(O)[nH]c(=O)[nH]c2=O)c1`, for which the AC50 under setting [1] is 1.58 µM [falling, full curve].

With `Cn1cc(C(=O)OCC(=O)Nc2ccccc2)c2ccccc21`, the AC50 under setting [1] is 9.2 µM [falling, partial curve].

Take `O=C(NNC(=O)c1ccccn1)c1cccc([N+](=O)[O-])c1`: under setting [1], the AC50 is 11.2 µM [falling, partial curve, poor fit].

`COc1ccc(-c2csc(NC(=S)NC(=O)/C=C/c3ccco3)n2)cc1Br`: the AC50 under setting [1] is 1.78 µM [rising, partial curve, poor fit].

In the case of `O=P1(Nc2ccc(F)cc2)COc2ccccc2OC1`, under setting [1], the AC50 was 14.1 µM [falling, partial curve, poor fit].

Turning to `Cc1nn(Cc2ccccc2Cl)c(C)c1C(=O)NC1CCCc2ccccc21` (configuration not stated), the AC50 under setting [1] is 6.51 µM [rising, single point].

As for `CCC1(OC(=O)CN)C(=O)OCc2c1cc1n(c2=O)Cc2cc3ccccc3nc2-1` (configuration not stated), the AC50 under setting [1] was 1 µM [falling, full curve].

Turning to `O=C(NC(O)C(=O)c1ccccc1)c1ccc(F)cc1` (configuration not stated), under setting [1], the AC50 is 22.4 µM [falling, single point].

In the case of `COC(=O)C1=C(c2ccc(Cl)c(C(F)(F)F)c2)C[C@@H]2CC[C@H]1N2C(=O)NCc1cc(C)oc1C(F)(F)F`, the AC50 under setting [1] is 14.6 µM [falling, partial curve, poor fit].

Turning to `COc1ccc(NC(=O)c2c(C)nn(Cc3ccccc3Cl)c2Cl)cc1Cl`, the AC50 under setting [1] is 1.03 µM [rising, full curve, poor fit].

Turning to `CCCOC(=O)c1ccc(-[n+]2c(-c3ccccc3)cc(-c3ccccc3)cc2-c2ccccc2)cc1`, the AC50 under setting [1] was 32.6 µM [falling, single point].

As for `Cc1cccc(N2C(=O)/C(=C/c3ccc(N4CCN(C)CC4)o3)C(=O)NC2=S)c1C`, the AC50 under setting [1] was 29.1 µM [rising, single point].

As to `CC(=O)c1csc(Nc2ccccc2Cl)n1`, under setting [1], the AC50 is 3.98 µM [falling, partial curve, poor fit].

`COc1ccc(-c2noc(-c3ccc(Br)o3)n2)cc1`: the AC50 under setting [1] is 2 µM [rising, full curve, poor fit].

Take `CCOCCOC(=O)c1[nH]c2c(c1C)C(=O)CC(c1ccc(OC)c(OC)c1)C2` (configuration not stated): the AC50 under setting [1] is 22.4 µM [falling, single point].

For the compound `COc1ccc(C(=O)Oc2cccc3cccnc23)cc1S(=O)(=O)N1CCOCC1`, the AC50 by setting is: under setting [1], 20 µM [falling, single point]; under setting [2], 11.2 µM [falling, partial curve].

Take `COc1cc([N+](=O)[O-])c(OC)cc1SCc1n[nH]c(=S)n1-c1ccc(C)cc1`: under setting [1], the concentration at half-maximal activity (AC50) was 10 µM [rising, partial curve, poor fit].

On to `CC1(C)OC(c2ccccc2)=C/C(=C/C=C2C(=O)NC(=O)NC2=O)O1`, for which, under setting [1], the AC50 was 3.55 µM [falling, full curve].

Turning to `CN1CCCC(C(O)(c2ccccc2)c2ccccc2)C1` (configuration not stated), the AC50 under setting [1] is 35.5 µM [falling, single point].

Turning to `Cc1cc(/C=C2\C(=O)NC(=O)N(c3ccc(Cl)cc3)C2=O)c(C)n1-c1cccc(C(=O)O)c1`, under setting [1], the AC50 was 1.58 µM [rising, single point].

With `CN1C(=O)C(=Cc2ccccc2OCc2ccc(Cl)cc2)C(=O)N(C)C1=O`, the AC50 under setting [1] was 0.082 µM [rising, full curve, poor fit].

As to `O=[N+]([O-])c1ccc(CN2CC=C(c3ccccc3)CC2)cc1`, the AC50 under setting [1] is 10 µM [falling, partial curve].

Consider `CC1CN(C(=O)c2ccc(COc3ccc4ccccc4c3)o2)CC(C)O1` (configuration not stated), for which the AC50 under setting [1] is 15.8 µM [falling, partial curve].
